# Laboratory results taken from PubChem BioAssay (EPA / NIEHS).
# Values joined by “and” are separate entries in the source; they are usually repeats but may differ in a detail not shown here. Equal entries are not always repeated. This list was built around the results that the source calls inconclusive (neither active nor inactive); the mix of calls is not that of the screen. A potency beside an inconclusive call is a rough fit, not a confirmed value. Some compounds were tested as several samples or in several runs, with calls that do not always agree. Active and inactive are the calls of the source. Rule for the calls: active = hit-call score of the fitted dose curve at least 0.9, where 1 is the maximum; inconclusive = response in the unintended direction; inactive = score below 0.9.
# Experiments:
# [1] = CCTE_Deisenroth_AIME_384WELL_CTox_Inactive: Cytotoxicity Assessment (CTOX) in CCTE's 384-well Estrogen Receptor Transactivation Assay without AIME metabolic competence (metabolism negative), Deisenroth Lab (AID 2284039);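 note: cell viability via live-cell protease substrate cleaved to fluorescent probe; cells exposed 24 h to medium preincubated 2 h with alginate-water beads without S9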
# Procedure, shortened: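 VM7Luc4E2 cells, metabolism-negative arm: test chemicals (0.002–200 uM, 10 points) pre-incubated 2 h with alginate-water microspheres, then medium transferred to cells for 24 h. Viability read as protease-substrate cleavage to fluorescent probe; loss-of-signal, bidirectional fitting.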
# [2] = CCTE_Shafer_MEA_dev_LDH: CCTE's Lactate Dehydrogenase Assay for Cytotoxicity in the Neural Network Formation Assay, Shafer Lab (AID 2284068);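 note: exposure for twelve days from plating with re-dosing on DIV 5 and 9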
# Procedure, shortened: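 Primary rat cortical neurons were plated on PEI/laminin MEA plates and exposed from day 0 for twelve days, with compound renewed at DIV 5 and 9. Cytotoxicity was determined by spectrophotometric LDH assay relative to DMSO.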
# [3] = CCTE_Shafer_MEA_dev_AB: CCTE's Alamar Blue Assay for Cytotoxicity in the Neural Network Formation Assay, Shafer Lab (AID 2284083);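 note: twelve days of exposure from plating with re-dosing on DIV 5 and 9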
# Procedure, shortened: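 Primary rat cortical neurons on PEI-coated 48-well MEA plates, 1.5 x 10^5 cells/well in laminin drop; compound exposure from day 0 of plating for twelve days, renewed at medium changes on DIV 5 and 9. Viability read as resazurin reduction by fluorescence, relative to DMSO.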
# [4] = CCTE_Shafer_MEA_acute_LDH: CCTE's Lactate Dehydrogenase Assay for Cytotoxicity in the Neural Acute Assay, Shafer Lab (AID 2284086);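 note: active means LDH release rises above DMSO vehicle level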
# Procedure, shortened: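 Medium collected from MEA wells of primary rat cortical cultures (DIV 13 or 15) immediately after 40 min chemical exposure is assayed spectrophotometrically for lactate dehydrogenase activity. Endpoint fitted in positive direction versus DMSO.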
# [5] = CCTE_Shafer_MEA_dev_bursting_electrodes_number: CCTE's Neural Network Formation Assay for Number of Bursting Electrodes, Shafer Lab (AID 2284043);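 for AC50: potency is for loss of bursting electrodes relative to DMSO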
# Procedure, shortened: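 Counted: electrodes with burst rate ≥1 per 2 min in each well. Cells: primary rat cortex, 1.5 x 10^5/well, on 16-electrode MEA wells. Exposure: DIV 0–12, compound renewed DIV 5 and 9. Recording days 5, 7, 9, 12; AUC vs DMSO baseline.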
# [6] = CCTE_Shafer_MEA_acute_AB: CCTE's Alamar Blue Assay for Cytotoxicity in the Neural Acute Assay, Shafer Lab (AID 2284069);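 note: active compounds lower the viability signal compared with DMSO wells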
# Procedure, shortened: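 Primary rat cortical neurons on MEA plates, exposed acutely after baseline recording on day 13 or 15 post-plating. Viability by CellTiter Blue resazurin reduction (1:6 reagent dilution), fluorescence 544/590 nm; loss of signal versus DMSO.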
smiles,measurement,setting,value
COCCOCCOCCO,outcome,[1],inactive
same,outcome,[2],inactive
same,outcome,[3],inactive
CNCc1ccc(NC(=O)c2c[nH]c3c2C(=O)CCC3)cc1,outcome,[1],inactive
same,outcome,[3],inactive
NC(=O)C(F)(F)C(F)(F)C(F)(F)C(F)(F)C(N)=O,AC50,[5],inconclusive: 15.4 nM and inconclusive: 15 µM
same,AC50,[2],inconclusive: 15 µM
same,outcome,[2],inactive
same,AC50,[3],inconclusive: 15 µM
COCC(C)OCC(C)O (stereo not drawn),AC50,[1],inconclusive: 0.000553 µM
Cc1ccc2ncccc2c1,AC50,[1],inconclusive: 0.000521 µM
same,AC50,[4],inconclusive: 20 µM
COC(=O)CCCC(=O)OC,AC50,[1],inconclusive: 100 µM
CCCC(CC)c1ccccc1 (stereo not drawn),outcome,[1],inactive
Cc1ccc(O)c(C(C)(C)C)c1,AC50,[1],inconclusive: 0.0002 µM
OC[C@@H](O)[C@@H](O)[C@H](O)[C@@H](O)CO,AC50,[5],inconclusive: 10.1 µM and inconclusive: 14.4 µM
same,AC50,[2],inconclusive: 0.0496 µM
same,AC50,[3],inconclusive: 0.42 µM
CCSC(=O)N(CC(C)C)CC(C)C,AC50,[1],inconclusive: 14.4 µM
Cc1ccc(S(=O)(=O)O)c(C)c1,AC50,[1],inconclusive: 0.0002 µM
Cc1c(C(=O)c2c[nH]n(C)c2=O)ccc(S(C)(=O)=O)c1C1=NOCC1,outcome,[5],inactive
same,AC50,[2],inconclusive: 6.42 µM
same,outcome,[3],inactive
CCCN(C1CCN(C(=O)C2CCNCC2)CC1)[C@@H]1CCc2ccc(OC)cc2C1,AC50,[1],inconclusive: 0.0002 µM
same,outcome,[6],inactive
same,outcome,[4],inactive
CC(CCl)OP(=O)(OC(C)CCl)OC(C)CCl (stereo not drawn),outcome,[5],inactive
N[C@H]1C(O)O[C@H](CO)[C@H](O)[C@@H]1O (stereo partly drawn),AC50,[5],active: 24.8 µM
CC(=O)OC/C=C(C)/C=C/C=C(C)/C=C/C1=C(C)CCCC1(C)C,outcome,[1],inactive
Oc1ccccc1,outcome,[1],inactive
same,AC50,[5],inconclusive: 15 µM
same,AC50,[3],inconclusive: 0.149 µM
N=C(N)C(F)(F)C(F)(F)C(F)(F)C(F)(F)C(F)(F)C(F)(F)C(F)(F)F,outcome,[5],inactive
OC1CCCCC1,outcome,[1],inactive
CCOCCOCCOCCO,outcome,[1],inactive
CCCCCOC(=O)CCC,AC50,[1],inconclusive: 0.0002 µM
FC(F)(F)COCC(F)(F)F,AC50,[5],inconclusive: 15 µM
same,AC50,[2],inconclusive: 0.152 µM
same,AC50,[3],inconclusive: 0.493 µM
C[N+](C)(C)CCCNS(=O)(=O)C(F)(F)C(F)(F)C(F)(F)C(F)(F)C(F)(F)C(F)(F)C(F)(F)C(F)(F)F,AC50,[5],active: 1.55 µM and active: 4.37 µM
CC(C)(C)C1CCC(O)CC1 (stereo not drawn),AC50,[1],inconclusive: 100 µM
c1ccc2cc3ccccc3cc2c1,AC50,[5],inconclusive: 9.95 µM
same,AC50,[2],inconclusive: 0.088 µM
same,AC50,[6],inconclusive: 15 µM
same,AC50,[3],inconclusive: 147 nM and inconclusive: 622 nM
same,outcome,[4],inactive
CC(=O)Nc1ccc(O)cc1,AC50,[1],inconclusive: 0.0002 µM
same,AC50,[5],inconclusive: 10 nM and inconclusive: 15 µM
same,AC50,[3],inconclusive: 15 µM and inconclusive: 409 nM
same,outcome,[3],inactive
NC(=O)C(F)(F)C(F)(F)C(F)(F)F,AC50,[5],inconclusive: 15 µM
same,outcome,[2],inactive
same,AC50,[3],inconclusive: 15 µM
Cn1c(=O)cc(Oc2ccc(F)cc2F)c2cnc(NCC(C)(C)O)nc21,outcome,[1],inactive
C/C=C/C=C/C(=O)O,outcome,[1],inactive
C=C[Si](OC(C)=O)(OC(C)=O)OC(C)=O,AC50,[6],inconclusive: 15 µM
NCCNCCN,outcome,[6],inactive
NC(=O)C(F)(F)C(F)(F)C(F)(F)C(F)F,AC50,[5],inconclusive: 0.003 µM
same,AC50,[3],inconclusive: 15 µM
O=CC(F)(F)C(F)(F)C(F)(F)C(F)F,outcome,[5],inactive
same,AC50,[2],inconclusive: 0.121 µM
same,AC50,[3],inconclusive: 15 µM
FC(F)(F)C(F)(F)C(F)(F)C(F)(F)C(F)(F)C(F)(F)I,AC50,[2],inconclusive: 0.162 µM
same,AC50,[3],inconclusive: 2.52 µM
OCC(F)(F)C(F)(F)C(F)(F)F,AC50,[2],inconclusive: 0.003 µM
OCC(O)CC(F)(F)C(F)(F)C(F)(F)C(F)(F)F (stereo not drawn),AC50,[2],inconclusive: 15 µM
same,AC50,[3],inconclusive: 15 µM
O=CC(F)(F)C(F)(F)C(F)(F)F,AC50,[2],inconclusive: 0.0858 µM
same,outcome,[3],inactive
COc1ccc2c(c1)c(CC(=O)O)c(C)n2C(=O)c1ccc(Cl)cc1,outcome,[6],inactive
CC(=O)[C@H]1CC[C@H]2[C@@H]3CC=C4C[C@@H](O)CC[C@]4(C)[C@H]3CC[C@]12C,AC50,[6],inconclusive: 2.98 µM
O=C(Cl)C(F)(F)C(F)(F)C(F)(F)C(=O)Cl,AC50,[2],inconclusive: 0.205 µM
same,outcome,[3],inactive
CNS(=O)(=O)C(F)(F)C(F)(F)C(F)(F)C(F)(F)C(F)(F)C(F)(F)C(F)(F)C(F)(F)F,AC50,[2],inconclusive: 0.047 µM
same,AC50,[3],inconclusive: 1.26 µM and inconclusive: 63.2 nM
C=CC(F)(F)C(F)(F)C(F)(F)C(F)(F)F,outcome,[5],inactive
same,AC50,[2],inconclusive: 0.0153 µM
same,outcome,[3],inactive
OC(O)C(F)(F)C(F)(F)F,AC50,[5],inconclusive: 15 µM
same,AC50,[3],inconclusive: 4.13 µM
NC(C(F)(F)F)C(F)(F)F,outcome,[5],inactive
same,AC50,[2],inconclusive: 15 µM
same,outcome,[3],inactive
FC(F)(F)C(F)(F)C(F)(F)C(F)(F)C(F)(F)C(F)(F)CCI,AC50,[2],inconclusive: 4.66 µM
same,outcome,[6],inactive
same,AC50,[4],inconclusive: 5 µM
OCc1ccccc1,AC50,[6],inconclusive: 20 µM
CCCCCCC(CO)CCCC (stereo not drawn),AC50,[6],inconclusive: 0.307 µM
COC(=O)C(F)(F)C(F)(F)C(F)(F)C(F)(F)C(F)(F)F,AC50,[5],inconclusive: 3.63 µM
same,AC50,[2],inconclusive: 0.165 µM
same,AC50,[3],inconclusive: 15 µM
CC(=O)c1ccc(C)cc1,AC50,[6],inconclusive: 15 µM
CC=CC(F)(F)C(F)(F)C(F)(F)F,AC50,[2],inconclusive: 15 µM
same,AC50,[3],inconclusive: 2.98 µM
FC(F)=C(F)C(F)(F)C(F)(F)C(F)(F)C(F)F,AC50,[5],inconclusive: 15 µM
same,AC50,[2],inconclusive: 0.0439 µM
same,AC50,[3],inconclusive: 15 µM
Cc1cc(C2(c3cc(C)c(O)cc3C)OS(=O)(=O)c3ccccc32)c(C)cc1O,outcome,[6],inactive
COC(=O)C(F)(F)C(F)(F)C(F)(F)F,outcome,[5],inactive
same,AC50,[2],inconclusive: 2.98 µM
same,AC50,[3],inconclusive: 15 µM
O=C(F)C(F)(F)C(F)(F)C(F)(F)C(F)F,AC50,[2],inconclusive: 15 µM
same,outcome,[3],inactive
FCOC(C(F)(F)F)C(F)(F)F,AC50,[2],inconclusive: 15 µM
OB(O)O,AC50,[2],inconclusive: 0.003 µM
same,outcome,[6],inactive
COC(=O)CCC(F)(F)C(F)(F)C(F)(F)C(F)(F)F,AC50,[5],inconclusive: 15 µM
same,AC50,[3],inconclusive: 15 µM
O=C(O)CCCCC(=O)O,AC50,[6],inconclusive: 20 µM
CCN(CCO)S(=O)(=O)C(F)(F)C(F)(F)C(F)(F)C(F)(F)C(F)(F)C(F)(F)C(F)(F)C(F)(F)F,AC50,[5],inconclusive: 15 µM
same,AC50,[3],inconclusive: 15 µM
same,outcome,[3],inactive
NNC(=O)c1ccncc1,AC50,[2],inconclusive: 0.0873 µM
same,outcome,[3],inactive
FC(F)=C(F)OC(F)(F)C(F)(F)C(F)(F)F,AC50,[5],inconclusive: 6.77 µM
same,AC50,[2],inconclusive: 5.59 µM
same,AC50,[3],inconclusive: 15 µM
CC(C)(C)c1cc(O)c(C(C)(C)C)cc1O,outcome,[6],inactive
CO[Si](C)(CCC(F)(F)C(F)(F)C(F)(F)C(F)(F)C(F)(F)C(F)(F)F)OC,AC50,[5],inconclusive: 0.001 µM
same,AC50,[3],inconclusive: 5 µM
OC[C@@H](O)[C@@H](O)[C@H](O)[C@H](O)CO,AC50,[2],inconclusive: 0.0823 µM
CC1(C)CC(O)CC(C)(C)N1[O],AC50,[6],inconclusive: 15 µM
O=C(OC(=O)C(F)(F)C(F)(F)F)C(F)(F)C(F)(F)F,AC50,[2],inconclusive: 0.308 µM
O=C(O)C(F)(F)C(F)(F)C(F)(F)OC(F)(F)F,AC50,[5],inconclusive: 15 µM
same,outcome,[2],inactive
same,AC50,[3],inconclusive: 15 µM

# Reformatted with bars between the fields: part of the list above.
smiles | measurement | setting | value
NC(=O)C(F)(F)C(F)(F)C(F)(F)F | AC50 | [3] | inconclusive: 15 µM
Cn1c(=O)cc(Oc2ccc(F)cc2F)c2cnc(NCC(C)(C)O)nc21 | outcome | [1] | inactive

# Another view of some results above:
smiles	measurement	setting	value
CCOCCOCCOCCO	outcome	[1]	inactive
CCCCCOC(=O)CCC	AC50	[1]	inconclusive: 0.0002 µM
FC(F)(F)COCC(F)(F)F	AC50	[5]	inconclusive: 15 µM
same	AC50	[2]	inconclusive: 0.152 µM
